This assay addresses T1, Glucose transporter 3 (Glut3) (rat (endogenous in primary Sprague Dawley rat neurons)) (UniProt Q07647).
T1 sequence: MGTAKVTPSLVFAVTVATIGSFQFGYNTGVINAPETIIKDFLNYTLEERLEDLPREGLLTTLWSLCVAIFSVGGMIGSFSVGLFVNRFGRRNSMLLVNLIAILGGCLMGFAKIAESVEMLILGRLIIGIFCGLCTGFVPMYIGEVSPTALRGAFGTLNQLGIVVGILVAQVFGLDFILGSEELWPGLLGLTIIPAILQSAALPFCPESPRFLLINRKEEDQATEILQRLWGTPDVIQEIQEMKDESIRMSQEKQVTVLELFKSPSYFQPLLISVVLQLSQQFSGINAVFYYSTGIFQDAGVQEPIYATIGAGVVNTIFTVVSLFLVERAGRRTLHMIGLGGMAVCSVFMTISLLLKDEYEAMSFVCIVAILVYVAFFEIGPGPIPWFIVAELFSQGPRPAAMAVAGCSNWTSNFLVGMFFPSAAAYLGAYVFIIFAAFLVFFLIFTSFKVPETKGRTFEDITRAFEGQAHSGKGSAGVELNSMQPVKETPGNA
As to the kind of experiment: co-IP; total natural proteins of primary rat neurons (Ctrl, Mg2+-free for 3 h, LV NC and LV Rab11a OE groups exposed to Mg2+-free fluid); precipitated with anti-Glut3 antibody overnight at 4 °C; blotted with anti-Glut3 and anti-Rab11A.

Results are given in words; binding and its absence hold for the method and conditions named. Binding seen in cells or lysates may run through a third protein. Some entries that bind do so weakly or less than the wild type. Where a sequence is shown, tags or fusion partners need not be part of it.

These results are taken from paper PMC12121293.

B1: Rab11a (protein, UniProt P62494 1-216)
chain: MGTRDDEYDYLFKVVLIGDSGVGKSNLLSRFTRNEFNLESKSTIGVEFATRSIQVDGKTIKAQIWDTAGQERYRAITSAYYRGAVGALLVYDIAKHLTYENVERWLKELRDHADSNIVIMLVGNKSDLRHLRAVPTDEARAFAEKNGLSFIETSALDSTNVEAAFQTILTEIYRIVSQKQMSDRRENDMSPSNNVVPIHVPPTTENKPKVQCCQNI
B1: the binding entry is reported as “binds”.

B2: Rab11a overexpressed by lentivirus (OE group) (protein, UniProt P62494 1-216)
chain: MGTRDDEYDYLFKVVLIGDSGVGKSNLLSRFTRNEFNLESKSTIGVEFATRSIQVDGKTIKAQIWDTAGQERYRAITSAYYRGAVGALLVYDIAKHLTYENVERWLKELRDHADSNIVIMLVGNKSDLRHLRAVPTDEARAFAEKNGLSFIETSALDSTNVEAAFQTILTEIYRIVSQKQMSDRRENDMSPSNNVVPIHVPPTTENKPKVQCCQNI
On to B2, for which the binding entry was “binds”.
